At least one structure is not confirmed: it was looked up by name or label, or the drawing left a doubt.
System: HCT116 cells
Assay: HCT116 colon cancer xenograft
Assay type: in vivo, CD1 nude athymic mice
Details: end of treatment, p=0.002

With O=C1/C(=C/c2cccc(Br)c2)CN(Cc2ccccc2)C/C1=C\c1cccc(Br)c1 [MC2884, 1-benzyl-3,5-bis(3-bromobenzylidene)piperidin-4-one] the “Ki67 proliferation index in tumors versus controls” value was “significantly lower”.

Reference: patent US20190284635A1, “METHOD FOR THE PROGNOSIS AND/OR TREATMENT OF ACUTE PROMYELOCYTIC LEUKEMIA” (EPI-C S.R.L., priority 2016, published 2019)
